Here are results for 37 targets from the supplement of paper PMC11006884.

Protein sequences, listed by entry. Tags and fused reporters are not part of them. Lines headed by an entry give the natural chain unless they say otherwise; changes in a name come on top.
UniProt O43432, whole entry, looked up: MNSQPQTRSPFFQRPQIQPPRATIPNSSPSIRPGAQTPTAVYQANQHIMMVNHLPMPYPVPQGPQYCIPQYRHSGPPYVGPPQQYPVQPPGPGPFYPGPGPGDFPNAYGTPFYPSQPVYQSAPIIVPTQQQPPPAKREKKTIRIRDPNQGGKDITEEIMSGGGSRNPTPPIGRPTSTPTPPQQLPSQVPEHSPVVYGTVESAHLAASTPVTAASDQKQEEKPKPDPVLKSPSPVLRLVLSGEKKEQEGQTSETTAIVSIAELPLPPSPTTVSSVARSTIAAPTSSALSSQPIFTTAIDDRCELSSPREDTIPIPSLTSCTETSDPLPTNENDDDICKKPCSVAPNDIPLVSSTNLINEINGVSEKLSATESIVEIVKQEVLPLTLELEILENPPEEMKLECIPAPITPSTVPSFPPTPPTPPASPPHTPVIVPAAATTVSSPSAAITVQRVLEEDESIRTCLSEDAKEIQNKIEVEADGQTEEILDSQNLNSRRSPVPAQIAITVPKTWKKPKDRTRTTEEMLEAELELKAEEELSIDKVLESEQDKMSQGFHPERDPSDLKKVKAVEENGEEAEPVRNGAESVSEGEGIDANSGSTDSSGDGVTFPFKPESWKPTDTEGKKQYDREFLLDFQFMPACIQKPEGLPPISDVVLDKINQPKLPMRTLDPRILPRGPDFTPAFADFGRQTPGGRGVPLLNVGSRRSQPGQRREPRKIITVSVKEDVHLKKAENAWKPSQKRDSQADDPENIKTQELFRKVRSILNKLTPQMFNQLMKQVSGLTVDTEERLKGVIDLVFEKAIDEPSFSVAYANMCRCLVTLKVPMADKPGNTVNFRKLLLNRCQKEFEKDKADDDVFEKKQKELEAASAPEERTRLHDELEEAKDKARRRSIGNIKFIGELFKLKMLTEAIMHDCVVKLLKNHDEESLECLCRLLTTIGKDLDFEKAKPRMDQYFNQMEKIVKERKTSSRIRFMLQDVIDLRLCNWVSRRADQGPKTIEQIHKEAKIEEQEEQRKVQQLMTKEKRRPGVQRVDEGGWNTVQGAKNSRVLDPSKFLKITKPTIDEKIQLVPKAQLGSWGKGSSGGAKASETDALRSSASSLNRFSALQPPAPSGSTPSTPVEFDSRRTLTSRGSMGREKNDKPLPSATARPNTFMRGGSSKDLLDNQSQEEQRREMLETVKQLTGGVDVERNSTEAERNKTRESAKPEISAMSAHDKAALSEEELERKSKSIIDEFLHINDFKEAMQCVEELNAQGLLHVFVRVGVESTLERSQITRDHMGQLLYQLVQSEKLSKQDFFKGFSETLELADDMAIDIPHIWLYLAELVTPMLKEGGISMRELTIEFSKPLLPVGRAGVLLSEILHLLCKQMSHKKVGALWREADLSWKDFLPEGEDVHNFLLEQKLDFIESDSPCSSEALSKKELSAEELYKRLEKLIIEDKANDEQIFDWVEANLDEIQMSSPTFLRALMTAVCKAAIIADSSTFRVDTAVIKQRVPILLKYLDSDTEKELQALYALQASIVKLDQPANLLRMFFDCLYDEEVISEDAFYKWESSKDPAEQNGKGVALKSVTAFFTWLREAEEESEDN
UniProt O75380, whole entry: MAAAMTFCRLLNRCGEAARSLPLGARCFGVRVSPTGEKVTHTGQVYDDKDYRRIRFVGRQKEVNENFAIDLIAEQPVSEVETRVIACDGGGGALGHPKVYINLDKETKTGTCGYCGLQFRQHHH
UniProt O43747: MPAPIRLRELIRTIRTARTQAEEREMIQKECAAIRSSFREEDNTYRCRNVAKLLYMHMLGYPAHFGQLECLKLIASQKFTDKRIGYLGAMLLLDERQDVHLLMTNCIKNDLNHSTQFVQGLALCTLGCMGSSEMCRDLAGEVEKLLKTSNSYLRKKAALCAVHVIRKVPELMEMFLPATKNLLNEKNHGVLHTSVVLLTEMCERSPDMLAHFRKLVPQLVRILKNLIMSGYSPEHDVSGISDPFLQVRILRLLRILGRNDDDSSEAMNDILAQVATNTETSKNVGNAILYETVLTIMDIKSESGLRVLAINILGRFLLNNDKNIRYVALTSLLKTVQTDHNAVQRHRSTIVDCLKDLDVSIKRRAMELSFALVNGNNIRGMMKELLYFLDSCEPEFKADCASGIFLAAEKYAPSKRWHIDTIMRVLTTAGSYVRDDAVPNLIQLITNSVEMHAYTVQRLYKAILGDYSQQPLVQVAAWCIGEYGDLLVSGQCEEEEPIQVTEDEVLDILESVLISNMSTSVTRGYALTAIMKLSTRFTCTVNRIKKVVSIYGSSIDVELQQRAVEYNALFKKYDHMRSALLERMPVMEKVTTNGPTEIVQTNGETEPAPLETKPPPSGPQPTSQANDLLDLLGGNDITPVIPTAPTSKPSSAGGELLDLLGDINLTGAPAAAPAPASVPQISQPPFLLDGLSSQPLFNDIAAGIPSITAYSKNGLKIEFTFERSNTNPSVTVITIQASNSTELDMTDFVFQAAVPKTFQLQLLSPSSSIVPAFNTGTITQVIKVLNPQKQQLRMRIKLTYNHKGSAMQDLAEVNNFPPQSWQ
UniProt O60333: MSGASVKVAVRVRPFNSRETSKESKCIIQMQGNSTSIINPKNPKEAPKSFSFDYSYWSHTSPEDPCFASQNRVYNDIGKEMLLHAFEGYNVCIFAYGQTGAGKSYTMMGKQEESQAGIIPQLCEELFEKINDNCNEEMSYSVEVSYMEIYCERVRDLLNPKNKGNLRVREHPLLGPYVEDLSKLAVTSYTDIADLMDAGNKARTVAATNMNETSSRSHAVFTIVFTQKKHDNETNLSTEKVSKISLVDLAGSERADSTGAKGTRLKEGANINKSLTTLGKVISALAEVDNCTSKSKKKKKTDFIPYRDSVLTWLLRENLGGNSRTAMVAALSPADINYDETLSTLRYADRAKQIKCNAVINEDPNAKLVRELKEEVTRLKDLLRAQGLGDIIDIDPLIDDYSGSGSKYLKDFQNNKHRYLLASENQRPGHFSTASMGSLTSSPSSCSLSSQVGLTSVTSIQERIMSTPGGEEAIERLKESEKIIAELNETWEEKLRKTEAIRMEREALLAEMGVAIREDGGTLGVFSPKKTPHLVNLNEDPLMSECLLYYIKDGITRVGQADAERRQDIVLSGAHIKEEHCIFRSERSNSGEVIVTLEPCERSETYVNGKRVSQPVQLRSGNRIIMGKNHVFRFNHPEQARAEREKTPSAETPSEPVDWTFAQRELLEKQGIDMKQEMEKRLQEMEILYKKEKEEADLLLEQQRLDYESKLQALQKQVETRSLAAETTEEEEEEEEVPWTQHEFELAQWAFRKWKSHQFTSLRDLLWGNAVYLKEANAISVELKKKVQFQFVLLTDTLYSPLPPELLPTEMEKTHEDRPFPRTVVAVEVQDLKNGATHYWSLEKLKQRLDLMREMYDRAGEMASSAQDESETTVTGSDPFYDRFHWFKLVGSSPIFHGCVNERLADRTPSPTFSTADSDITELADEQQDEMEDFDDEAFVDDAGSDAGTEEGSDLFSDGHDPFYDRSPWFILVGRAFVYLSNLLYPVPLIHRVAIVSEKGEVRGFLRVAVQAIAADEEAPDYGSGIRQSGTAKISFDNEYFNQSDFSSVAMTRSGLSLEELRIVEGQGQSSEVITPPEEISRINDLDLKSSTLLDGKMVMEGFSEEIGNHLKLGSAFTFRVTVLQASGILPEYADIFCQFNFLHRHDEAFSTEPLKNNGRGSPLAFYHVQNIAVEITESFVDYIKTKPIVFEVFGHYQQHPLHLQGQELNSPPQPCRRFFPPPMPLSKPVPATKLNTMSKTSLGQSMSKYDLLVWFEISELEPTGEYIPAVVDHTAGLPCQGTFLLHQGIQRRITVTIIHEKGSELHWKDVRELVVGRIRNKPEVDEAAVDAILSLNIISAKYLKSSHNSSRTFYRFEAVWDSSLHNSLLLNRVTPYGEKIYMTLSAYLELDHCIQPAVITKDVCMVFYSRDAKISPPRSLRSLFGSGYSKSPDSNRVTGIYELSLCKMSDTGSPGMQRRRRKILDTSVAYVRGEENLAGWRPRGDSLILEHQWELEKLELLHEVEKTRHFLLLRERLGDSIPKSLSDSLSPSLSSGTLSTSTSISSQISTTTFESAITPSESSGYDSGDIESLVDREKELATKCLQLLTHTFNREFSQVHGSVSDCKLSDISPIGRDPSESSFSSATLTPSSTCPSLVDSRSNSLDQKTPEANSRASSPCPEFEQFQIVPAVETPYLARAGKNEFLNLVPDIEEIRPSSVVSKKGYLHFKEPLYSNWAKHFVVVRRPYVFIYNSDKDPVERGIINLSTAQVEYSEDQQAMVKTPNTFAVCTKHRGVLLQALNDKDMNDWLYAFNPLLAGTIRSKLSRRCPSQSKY
UniProt O60264, whole entry, looked up: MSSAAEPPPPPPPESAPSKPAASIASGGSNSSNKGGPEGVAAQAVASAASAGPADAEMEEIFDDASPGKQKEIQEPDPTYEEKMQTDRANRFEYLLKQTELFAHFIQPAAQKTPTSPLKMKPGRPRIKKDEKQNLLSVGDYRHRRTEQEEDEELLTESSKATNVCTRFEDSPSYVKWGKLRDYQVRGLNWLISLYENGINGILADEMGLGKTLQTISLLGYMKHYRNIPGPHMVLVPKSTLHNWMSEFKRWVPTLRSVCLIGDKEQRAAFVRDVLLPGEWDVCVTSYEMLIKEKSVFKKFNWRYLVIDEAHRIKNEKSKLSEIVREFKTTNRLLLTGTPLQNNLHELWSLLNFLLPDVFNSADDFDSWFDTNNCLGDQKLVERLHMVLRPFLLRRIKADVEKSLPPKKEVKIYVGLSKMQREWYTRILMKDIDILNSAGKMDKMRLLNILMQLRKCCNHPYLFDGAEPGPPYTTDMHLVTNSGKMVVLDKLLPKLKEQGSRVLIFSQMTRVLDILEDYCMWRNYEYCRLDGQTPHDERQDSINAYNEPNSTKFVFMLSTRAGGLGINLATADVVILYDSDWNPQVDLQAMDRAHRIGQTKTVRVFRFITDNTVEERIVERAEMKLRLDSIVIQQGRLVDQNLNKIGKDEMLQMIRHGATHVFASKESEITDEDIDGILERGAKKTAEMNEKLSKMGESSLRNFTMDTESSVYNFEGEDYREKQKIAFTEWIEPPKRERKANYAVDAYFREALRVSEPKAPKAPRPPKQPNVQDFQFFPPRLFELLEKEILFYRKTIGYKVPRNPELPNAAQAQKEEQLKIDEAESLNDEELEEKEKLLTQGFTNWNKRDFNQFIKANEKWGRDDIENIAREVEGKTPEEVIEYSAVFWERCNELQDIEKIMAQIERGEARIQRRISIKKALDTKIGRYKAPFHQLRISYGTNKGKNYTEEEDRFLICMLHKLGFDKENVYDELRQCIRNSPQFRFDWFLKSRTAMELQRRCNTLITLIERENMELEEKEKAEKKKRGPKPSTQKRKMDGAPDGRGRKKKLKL
UniProt O43252: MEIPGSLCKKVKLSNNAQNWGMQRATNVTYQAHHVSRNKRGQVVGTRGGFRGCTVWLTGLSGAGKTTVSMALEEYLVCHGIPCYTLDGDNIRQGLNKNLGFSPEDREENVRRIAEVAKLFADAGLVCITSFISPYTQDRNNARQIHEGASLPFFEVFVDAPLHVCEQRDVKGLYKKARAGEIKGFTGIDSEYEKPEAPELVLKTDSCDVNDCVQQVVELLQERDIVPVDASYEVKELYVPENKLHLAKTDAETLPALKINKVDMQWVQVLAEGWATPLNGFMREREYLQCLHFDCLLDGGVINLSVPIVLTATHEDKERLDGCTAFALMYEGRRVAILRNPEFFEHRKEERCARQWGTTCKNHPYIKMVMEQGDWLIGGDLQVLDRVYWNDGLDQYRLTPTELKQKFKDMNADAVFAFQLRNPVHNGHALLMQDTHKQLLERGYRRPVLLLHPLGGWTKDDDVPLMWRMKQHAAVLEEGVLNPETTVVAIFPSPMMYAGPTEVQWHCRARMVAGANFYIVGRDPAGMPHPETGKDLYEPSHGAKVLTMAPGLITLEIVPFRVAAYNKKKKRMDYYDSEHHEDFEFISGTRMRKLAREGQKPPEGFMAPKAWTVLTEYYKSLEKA
UniProt O60701: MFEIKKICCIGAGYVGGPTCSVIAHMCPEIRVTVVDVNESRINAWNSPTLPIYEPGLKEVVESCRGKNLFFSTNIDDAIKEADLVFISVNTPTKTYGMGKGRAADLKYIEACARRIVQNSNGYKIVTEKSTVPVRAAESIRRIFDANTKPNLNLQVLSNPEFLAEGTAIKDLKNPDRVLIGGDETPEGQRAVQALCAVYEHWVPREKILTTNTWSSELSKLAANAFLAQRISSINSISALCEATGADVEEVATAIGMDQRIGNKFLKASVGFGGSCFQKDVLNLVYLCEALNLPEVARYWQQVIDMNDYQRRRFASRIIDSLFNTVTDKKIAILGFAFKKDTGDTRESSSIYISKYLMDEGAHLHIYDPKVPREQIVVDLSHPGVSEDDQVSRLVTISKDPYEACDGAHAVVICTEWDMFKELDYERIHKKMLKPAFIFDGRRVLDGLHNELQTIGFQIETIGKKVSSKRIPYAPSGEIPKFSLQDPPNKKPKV

Shown are results outside the selection of targets with a hit, which stands elsewhere. This is a noisy data set. This is a selection; strong and weak results do not stand in their true shares.

Compound in this experiment: COC(=O)/C=C/c1ccccc1 [methyl cinnamate]
Kind of experiment: log2 ratio of iodoacetamide-alkyne labeling of the cysteine site, DMSO over compound (competition); higher = stronger covalent engagement of the cysteine by the compound, active = 1 or more. The note with it: 500 µM; treatment time 1 h; system: HEK293T cell lysate. A digest of the protocol: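 Electrophile (500 µM) or vehicle was added to HEK293T lysate (2 mg/mL) for 1 h at ambient temperature before iodoacetamide alkyne labelling (1 h) and click coupling to sCIP-TMT reagents. After pooling, overnight trypsin digestion at 37 °C, streptavidin enrichment and acid elution, peptides were measured by Orbitrap Eclipse LC-MS/MS with FAIMS and quantified in FragPipe. Each cysteine's log2 competition ratio compares mean control-channel with mean compound-channel reporter intensity, control over compound. Data came from duplicate channels across three replicates, excluding cysteines quantified in only one replicate.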
For the target UniProt O75164_C533, the “log2 ratio of iodoacetamide-alkyne labeling” value (from here on “log2 ratio”) is inactive: 0.293.

As for ASNA1 C289 (UniProt O43681), the “log2 ratio” value is inactive: 0.183.

Consider OPA1 C801 (UniProt O60313), for which the “log2 ratio” value is inactive: 0.187.

Take PRC1 C132 (UniProt O43663): the “log2 ratio” value is inactive: 0.188.

For the target UniProt O43432_C461, the “log2 ratio” value is inactive: 0.214.

Turning to ROCK2 C428 (UniProt O75116), the “log2 ratio” value was inactive: 0.166.

Regarding MCM3AP C274 (UniProt O60318), the “log2 ratio” value is inactive: 0.0592.

Regarding SURF6 C189 (UniProt O75683), the “log2 ratio” value was inactive: 0.391.

Take USO1 C27 (UniProt O60763): the “log2 ratio” value was inactive: 0.254.

In the case of NDUFS6 C87 (UniProt O75380), the “log2 ratio” value is inactive: 0.261.

In the case of CPNE3 C506 (UniProt O75131), the “log2 ratio” value was inactive: -0.301.

On to RNF40 C69 (UniProt O75150), for which the “log2 ratio” value is inactive: 0.235.

In the case of AP1G1 C31 (UniProt O43747), the “log2 ratio” value is inactive: 0.189.

For the target RNF40 C950 (UniProt O75150), the “log2 ratio” value was inactive: 0.385.

Regarding KIF1B C66 (UniProt O60333), the “log2 ratio” value is inactive: 0.144.

Regarding UniProt O43776_C452, the “log2 ratio” value was inactive: -0.00239.

RAD21 C392 (UniProt O60216): the “log2 ratio” value is inactive: 0.163.

With NBN C487 (UniProt O60934), the “log2 ratio” value was inactive: 0.349.

Regarding SMARCA5 C259 (UniProt O60264), the “log2 ratio” value is inactive: 0.159.

In the case of RAD21 C585 (UniProt O60216), the “log2 ratio” value is inactive: 0.0722.

In the case of PMPCB C419 (UniProt O75439), the “log2 ratio” value was inactive: 0.162.

Take FZD6 C702 (UniProt O60353): the “log2 ratio” value was inactive: 0.226.

As for SF3B1 C1035 (UniProt O75533), the “log2 ratio” value is inactive: 0.13.

On to PMPCB C265 (UniProt O75439), for which the “log2 ratio” value was inactive: -0.266.

Turning to PAPSS1 C165 (UniProt O43252), the “log2 ratio” value was inactive: 0.00865.

For AKAP8 C85 (UniProt O43823), the “log2 ratio” value is inactive: 0.281.

As for KIF1C C198 (UniProt O43896), the “log2 ratio” value was inactive: 0.0911.

In the case of UGDH C196 (UniProt O60701), the “log2 ratio” value was inactive: -0.04.

As for ANKRD17 C210 (UniProt O75179), the “log2 ratio” value was inactive: 0.126.

For the target UniProt O43913_C10, the “log2 ratio” value is inactive: 0.189.

Turning to FZD6 C615 (UniProt O60353), the “log2 ratio” value is inactive: 0.323.

For the target PQBP1 C60 (UniProt O60828), the “log2 ratio” value was inactive: 0.26.

Regarding NME6 C163 (UniProt O75414), the “log2 ratio” value is inactive: 0.153.

OPA1 C786 (UniProt O60313): the “log2 ratio” value was inactive: 0.226.

Consider UniProt O60664_C60, for which the “log2 ratio” value is inactive: 0.305.

Take IDH3B C185 (UniProt O43837): the “log2 ratio” value was inactive: 0.262.

With TIPRL C87 (UniProt O75663), the “log2 ratio” value was inactive: 0.123.
